# Data as given in PubChem BioAssay AID1259308 (NCATS, 2017)
# Screen: 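Knock-downs that increase output of a recombinant reporter protein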 (primary screen)
# Cell system: human HEK293 embryonic kidney cells stably expressing firefly luciferase (HEK-CMV-Luc2-Hygro)
# Knock-down reagent: single siRNA against human genes, 0.8 pmol siRNA per well
# Time to read-out: 72 h
# Detection: 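Luciferase light (ONE-Glo) measured on one replicate plate set and viability (CellTiter-Glo) on the other, scaled to a negative control siRNA, with robust z-scores and luciferase per cell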
# Direction: total luciferase, z-score and total luciferase, % of control: higher = more reporter protein produced; luciferase per cell, z-score: higher = more reporter output per viable cell
# Call rule: 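Active when the median/MAD z-score for overall luciferase is greater than 3; a gene was taken forward for validation with new siRNAs if at least two of its three siRNAs passed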
# Meaning of the calls: active = raised luciferase; inactive = no rise
# Here is an unselected part of about 59,000 deposited reagents. Over the whole deposit, about 1,510 (2.6%) are marked active. 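Calls use total luciferase alone and ignore viability, so some active siRNAs may act by altering cell number.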 Further read-outs or replicates are left out here. Reagent sequences are not shown.
gene,PubChem SID,"total luciferase, z-score","total luciferase, % of control","luciferase per cell, z-score",activity call
CAPN15,SID160717174,0.663,95.1,0.417,inactive
CAPN15,SID160717175,-0.387,74.2,-0.312,inactive
CAPN15,SID160717176,0.416,90.2,0.25,inactive
SCYL1,SID160745953,0.255,87,0.0513,inactive
SCYL1,SID160745954,-1.67,48.6,-1.91,inactive
SCYL1,SID160745955,0.359,89,0.596,inactive
WDFY4,SID160759737,-0.529,71.4,-0.183,inactive
WDFY4,SID160759738,1.28,107,1.33,inactive
WDFY4,SID160759739,-1.6,50.1,-2.27,inactive
ZNF611,SID160751034,0.855,98.9,1.29,inactive
ZNF611,SID160751035,-0.492,72.1,-0.56,inactive
ZNF611,SID160751036,-1.12,59.6,-0.849,inactive
CDK5RAP1,SID160741161,-0.137,79.2,-1.02,inactive
CDK5RAP1,SID160741162,0.196,85.8,0.073,inactive
CDK5RAP1,SID160741163,-1.59,50.2,-2.03,inactive
KLC2,SID160748036,0.405,89.9,0.568,inactive
KLC2,SID160748037,1.75,117,1.35,inactive
KLC2,SID160748038,-0.995,62.1,-0.755,inactive
FGFR2,SID160765458,-0.616,69.6,-0.46,inactive
FGFR2,SID160765469,1.12,104,0.458,inactive
FGFR2,SID160765479,-0.749,67,-0.403,inactive
SLC35G3,SID160732543,-2.59,30.4,-3.59,inactive
SLC35G3,SID160758440,-1.04,61.1,-1.84,inactive
SLC35G3,SID160758441,-1.97,42.7,-0.145,inactive

As entered above:
For “total luciferase, z-score”, SCYL1 [SID160745955] is entered as 0.359
Value of SCYL1 [SID160745954] under “total luciferase, % of control”: 48.6
Entry for CDK5RAP1 [SID160741161] under “total luciferase, % of control”: 79.2
Under “total luciferase, z-score”, ZNF611 [SID160751035] shows -0.492

Additional records:
gene,PubChem SID,"total luciferase, z-score","total luciferase, % of control","luciferase per cell, z-score",activity call
ABHD6,SID160745941,-0.386,74.2,-0.493,inactive
ABHD6,SID160745942,0.627,94.4,0.0538,inactive
ABHD6,SID160745943,-1.16,58.9,-1.34,inactive
ITGAE,SID160731149,-0.168,78.5,-0.216,inactive
ITGAE,SID160775981,0.426,90.4,0.404,inactive
ITGAE,SID160775982,1.51,112,1.14,inactive
ECI2,SID160728459,-1.42,53.7,-0.554,inactive
ECI2,SID160728460,0.34,88.6,0.17,inactive
ECI2,SID160728461,-1.54,51.2,-1.98,inactive
GTPBP8,SID160739021,1.55,113,1.19,inactive
GTPBP8,SID160739022,0.134,84.6,-0.215,inactive
GTPBP8,SID160739023,4.31,168,3.01,active
APPL2,SID160743201,-0.0352,81.2,-0.667,inactive
APPL2,SID160743202,-1.33,55.5,-0.589,inactive
APPL2,SID160743203,-0.927,63.5,-0.582,inactive
CCL23,SID160716486,2.76,137,1.21,inactive
CCL23,SID160716487,1.37,109,1.51,inactive
CCL23,SID160724073,2.33,128,1.56,inactive
PAXBP1,SID160754621,0.348,88.8,-0.0839,inactive
PAXBP1,SID160754622,1.46,111,1.57,inactive
PAXBP1,SID160754623,1.42,110,1.34,inactive
TLR7,SID160740493,1.71,116,1.37,inactive
TLR7,SID160740494,0.213,86.1,0.545,inactive
TLR7,SID160740495,0.642,94.7,0.99,inactive
ADAMTS4,SID160722368,0.326,88.4,0.949,inactive
ADAMTS4,SID160722369,-0.0838,80.2,-0.141,inactive
ADAMTS4,SID160732195,-0.00473,81.8,-0.135,inactive
ERVW-1,SID160739517,-0.0492,80.9,0.525,inactive
ERVW-1,SID160739518,-0.502,71.9,-0.675,inactive
ERVW-1,SID160739519,0.509,92,-0.119,inactive
ZNF286A,SID160745889,-0.827,65.4,-0.728,inactive
ZNF286A,SID160745890,-2.06,40.9,-2.21,inactive
ZNF286A,SID160745891,-0.654,68.9,-0.416,inactive
